# From the supplement of paper PMC10849652
# Amino acid sequences for entries named in this document (tags omitted). A change or cut given only in a name is not applied to a line headed by its entry.
# UniProt Q96EM0: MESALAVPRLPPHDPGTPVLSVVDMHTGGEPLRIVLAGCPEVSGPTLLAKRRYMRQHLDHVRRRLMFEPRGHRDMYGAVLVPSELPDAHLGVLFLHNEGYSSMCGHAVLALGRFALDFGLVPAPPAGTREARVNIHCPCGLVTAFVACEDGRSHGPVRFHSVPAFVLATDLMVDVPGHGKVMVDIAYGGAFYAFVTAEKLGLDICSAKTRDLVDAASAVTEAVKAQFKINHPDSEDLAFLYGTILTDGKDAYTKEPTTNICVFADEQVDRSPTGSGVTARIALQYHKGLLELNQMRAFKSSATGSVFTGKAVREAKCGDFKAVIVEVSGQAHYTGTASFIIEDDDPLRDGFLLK
# UniProt P30533, whole entry, looked up: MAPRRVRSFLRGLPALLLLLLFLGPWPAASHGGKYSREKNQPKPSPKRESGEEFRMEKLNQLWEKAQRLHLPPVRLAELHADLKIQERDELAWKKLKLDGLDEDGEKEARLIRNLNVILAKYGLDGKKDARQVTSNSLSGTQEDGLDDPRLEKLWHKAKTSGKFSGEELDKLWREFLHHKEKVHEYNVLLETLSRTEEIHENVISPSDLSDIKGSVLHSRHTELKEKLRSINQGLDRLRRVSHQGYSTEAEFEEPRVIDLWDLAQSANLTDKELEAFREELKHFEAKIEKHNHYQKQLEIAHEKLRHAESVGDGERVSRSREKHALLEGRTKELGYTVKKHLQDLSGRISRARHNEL
# UniProt Q6IAA8, whole entry, looked up: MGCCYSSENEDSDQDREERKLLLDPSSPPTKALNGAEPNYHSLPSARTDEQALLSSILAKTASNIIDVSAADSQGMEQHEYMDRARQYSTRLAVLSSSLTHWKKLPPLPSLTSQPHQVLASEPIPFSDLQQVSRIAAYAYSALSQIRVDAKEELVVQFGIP
# UniProt P50851: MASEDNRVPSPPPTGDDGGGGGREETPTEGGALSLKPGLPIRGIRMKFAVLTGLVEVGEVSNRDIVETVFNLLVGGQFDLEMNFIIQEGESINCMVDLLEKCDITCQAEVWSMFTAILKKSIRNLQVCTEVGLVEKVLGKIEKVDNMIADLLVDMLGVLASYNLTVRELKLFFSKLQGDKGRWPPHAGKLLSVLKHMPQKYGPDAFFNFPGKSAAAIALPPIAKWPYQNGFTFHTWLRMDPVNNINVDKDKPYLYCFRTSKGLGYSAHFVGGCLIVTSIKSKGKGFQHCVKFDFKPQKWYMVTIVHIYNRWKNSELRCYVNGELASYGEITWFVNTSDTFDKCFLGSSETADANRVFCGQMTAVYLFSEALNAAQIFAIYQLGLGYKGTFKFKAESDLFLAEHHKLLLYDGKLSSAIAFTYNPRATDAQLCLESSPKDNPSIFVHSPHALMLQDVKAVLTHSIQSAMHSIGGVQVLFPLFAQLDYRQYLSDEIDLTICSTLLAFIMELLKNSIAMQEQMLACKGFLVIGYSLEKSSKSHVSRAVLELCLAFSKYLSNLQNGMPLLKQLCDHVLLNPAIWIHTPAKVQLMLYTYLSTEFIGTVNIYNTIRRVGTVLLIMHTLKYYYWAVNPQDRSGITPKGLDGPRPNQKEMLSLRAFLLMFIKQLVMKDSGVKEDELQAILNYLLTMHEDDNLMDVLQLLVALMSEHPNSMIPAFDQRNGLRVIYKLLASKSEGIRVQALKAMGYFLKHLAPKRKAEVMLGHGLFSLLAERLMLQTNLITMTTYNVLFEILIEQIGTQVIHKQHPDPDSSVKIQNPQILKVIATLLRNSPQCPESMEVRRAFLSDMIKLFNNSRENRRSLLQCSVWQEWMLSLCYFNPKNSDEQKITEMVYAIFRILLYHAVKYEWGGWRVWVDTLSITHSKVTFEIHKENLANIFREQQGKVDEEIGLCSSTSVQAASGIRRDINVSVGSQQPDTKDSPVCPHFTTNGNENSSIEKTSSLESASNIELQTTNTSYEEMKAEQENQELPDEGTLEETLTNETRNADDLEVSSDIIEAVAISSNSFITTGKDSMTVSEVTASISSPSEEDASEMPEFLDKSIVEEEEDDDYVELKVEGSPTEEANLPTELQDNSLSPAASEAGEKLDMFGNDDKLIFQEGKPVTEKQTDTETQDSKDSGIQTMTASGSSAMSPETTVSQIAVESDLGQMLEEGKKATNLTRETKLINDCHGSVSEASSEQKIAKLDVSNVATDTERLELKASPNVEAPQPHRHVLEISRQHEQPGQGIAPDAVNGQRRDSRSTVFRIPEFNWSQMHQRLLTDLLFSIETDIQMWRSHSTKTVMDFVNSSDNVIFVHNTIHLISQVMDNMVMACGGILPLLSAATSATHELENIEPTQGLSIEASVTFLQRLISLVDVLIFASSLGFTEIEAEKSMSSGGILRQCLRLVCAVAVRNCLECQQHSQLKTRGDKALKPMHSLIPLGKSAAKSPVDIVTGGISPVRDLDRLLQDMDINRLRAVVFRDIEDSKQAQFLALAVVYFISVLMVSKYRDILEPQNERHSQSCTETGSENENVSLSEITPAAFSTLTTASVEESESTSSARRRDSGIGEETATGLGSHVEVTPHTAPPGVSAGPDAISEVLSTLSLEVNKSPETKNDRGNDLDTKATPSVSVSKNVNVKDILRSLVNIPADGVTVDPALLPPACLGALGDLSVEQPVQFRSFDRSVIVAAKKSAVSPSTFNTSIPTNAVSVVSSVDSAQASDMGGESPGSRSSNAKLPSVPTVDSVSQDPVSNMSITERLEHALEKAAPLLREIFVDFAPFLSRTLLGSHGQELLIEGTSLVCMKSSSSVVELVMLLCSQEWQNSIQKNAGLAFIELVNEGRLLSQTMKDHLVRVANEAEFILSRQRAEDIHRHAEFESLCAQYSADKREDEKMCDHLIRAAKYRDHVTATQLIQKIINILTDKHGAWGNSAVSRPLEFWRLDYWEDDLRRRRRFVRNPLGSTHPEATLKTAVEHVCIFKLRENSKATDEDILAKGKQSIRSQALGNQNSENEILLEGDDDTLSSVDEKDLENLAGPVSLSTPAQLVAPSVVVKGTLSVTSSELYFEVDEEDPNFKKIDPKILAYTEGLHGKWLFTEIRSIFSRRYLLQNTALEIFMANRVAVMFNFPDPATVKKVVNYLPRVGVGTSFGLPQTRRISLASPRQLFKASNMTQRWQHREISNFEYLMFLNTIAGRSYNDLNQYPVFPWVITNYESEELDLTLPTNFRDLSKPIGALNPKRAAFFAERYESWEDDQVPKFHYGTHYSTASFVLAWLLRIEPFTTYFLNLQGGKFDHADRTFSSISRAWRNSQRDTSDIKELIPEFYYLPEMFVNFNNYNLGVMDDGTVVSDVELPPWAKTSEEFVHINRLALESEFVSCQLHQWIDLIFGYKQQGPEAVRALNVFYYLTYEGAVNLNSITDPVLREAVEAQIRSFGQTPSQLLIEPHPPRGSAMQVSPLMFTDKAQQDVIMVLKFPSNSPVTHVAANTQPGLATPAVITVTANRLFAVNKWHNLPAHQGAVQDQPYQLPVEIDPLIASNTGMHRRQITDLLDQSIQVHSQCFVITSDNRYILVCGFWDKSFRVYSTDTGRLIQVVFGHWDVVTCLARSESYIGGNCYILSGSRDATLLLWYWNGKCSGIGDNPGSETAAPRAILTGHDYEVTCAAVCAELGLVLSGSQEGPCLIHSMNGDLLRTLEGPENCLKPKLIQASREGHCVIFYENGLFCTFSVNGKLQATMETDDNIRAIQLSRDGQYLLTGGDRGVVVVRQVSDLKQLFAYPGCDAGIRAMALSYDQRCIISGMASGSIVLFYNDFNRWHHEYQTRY
# UniProt Q7Z4F1: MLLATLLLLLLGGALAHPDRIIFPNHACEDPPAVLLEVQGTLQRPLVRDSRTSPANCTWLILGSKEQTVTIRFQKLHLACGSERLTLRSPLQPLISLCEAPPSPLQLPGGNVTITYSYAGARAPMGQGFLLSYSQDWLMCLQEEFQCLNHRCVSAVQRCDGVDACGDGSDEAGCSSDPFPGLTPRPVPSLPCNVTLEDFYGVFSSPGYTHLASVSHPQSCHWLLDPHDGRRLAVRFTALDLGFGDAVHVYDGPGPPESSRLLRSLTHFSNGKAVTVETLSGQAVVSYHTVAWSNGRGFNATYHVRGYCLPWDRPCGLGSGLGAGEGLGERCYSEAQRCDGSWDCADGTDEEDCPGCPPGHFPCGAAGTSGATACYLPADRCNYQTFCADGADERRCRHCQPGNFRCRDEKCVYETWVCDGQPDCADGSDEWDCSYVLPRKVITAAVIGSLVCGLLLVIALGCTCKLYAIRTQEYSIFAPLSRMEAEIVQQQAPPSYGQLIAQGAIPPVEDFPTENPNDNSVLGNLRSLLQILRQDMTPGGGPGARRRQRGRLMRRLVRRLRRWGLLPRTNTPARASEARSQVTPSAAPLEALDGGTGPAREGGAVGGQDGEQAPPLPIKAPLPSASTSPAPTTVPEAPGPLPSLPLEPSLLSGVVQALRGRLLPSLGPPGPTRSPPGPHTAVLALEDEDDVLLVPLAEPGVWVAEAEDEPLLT
# UniProt Q53H82: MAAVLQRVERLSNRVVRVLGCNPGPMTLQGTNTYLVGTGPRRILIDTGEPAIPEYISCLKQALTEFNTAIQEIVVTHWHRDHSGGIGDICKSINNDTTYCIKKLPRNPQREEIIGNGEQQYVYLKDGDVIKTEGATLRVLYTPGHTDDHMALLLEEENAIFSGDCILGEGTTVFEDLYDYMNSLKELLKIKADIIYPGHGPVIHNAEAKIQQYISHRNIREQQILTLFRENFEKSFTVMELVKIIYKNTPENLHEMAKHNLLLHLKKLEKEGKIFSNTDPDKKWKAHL
# UniProt Q92539: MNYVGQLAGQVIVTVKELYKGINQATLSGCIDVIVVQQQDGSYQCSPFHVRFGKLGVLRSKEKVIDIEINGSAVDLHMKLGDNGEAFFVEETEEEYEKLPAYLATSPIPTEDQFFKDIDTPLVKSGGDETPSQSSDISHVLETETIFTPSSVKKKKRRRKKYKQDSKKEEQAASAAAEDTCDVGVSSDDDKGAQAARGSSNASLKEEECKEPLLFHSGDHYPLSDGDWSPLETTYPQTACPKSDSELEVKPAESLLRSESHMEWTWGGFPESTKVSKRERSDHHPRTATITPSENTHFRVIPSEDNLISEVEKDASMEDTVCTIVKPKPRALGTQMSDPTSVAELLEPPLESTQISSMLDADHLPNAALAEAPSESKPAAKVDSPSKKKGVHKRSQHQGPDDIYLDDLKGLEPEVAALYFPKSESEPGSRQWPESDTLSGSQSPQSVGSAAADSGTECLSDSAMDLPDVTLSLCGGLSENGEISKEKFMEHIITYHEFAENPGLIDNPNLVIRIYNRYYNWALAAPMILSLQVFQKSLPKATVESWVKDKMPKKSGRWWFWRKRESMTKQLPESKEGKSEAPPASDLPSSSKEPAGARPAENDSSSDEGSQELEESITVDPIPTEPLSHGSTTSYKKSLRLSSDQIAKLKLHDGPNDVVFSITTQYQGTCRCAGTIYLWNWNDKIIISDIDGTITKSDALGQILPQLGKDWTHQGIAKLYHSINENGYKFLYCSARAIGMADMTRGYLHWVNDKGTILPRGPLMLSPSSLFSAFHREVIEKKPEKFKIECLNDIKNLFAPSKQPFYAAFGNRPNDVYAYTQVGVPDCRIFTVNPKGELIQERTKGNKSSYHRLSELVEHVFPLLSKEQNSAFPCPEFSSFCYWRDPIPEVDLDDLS
# UniProt Q5T3J3: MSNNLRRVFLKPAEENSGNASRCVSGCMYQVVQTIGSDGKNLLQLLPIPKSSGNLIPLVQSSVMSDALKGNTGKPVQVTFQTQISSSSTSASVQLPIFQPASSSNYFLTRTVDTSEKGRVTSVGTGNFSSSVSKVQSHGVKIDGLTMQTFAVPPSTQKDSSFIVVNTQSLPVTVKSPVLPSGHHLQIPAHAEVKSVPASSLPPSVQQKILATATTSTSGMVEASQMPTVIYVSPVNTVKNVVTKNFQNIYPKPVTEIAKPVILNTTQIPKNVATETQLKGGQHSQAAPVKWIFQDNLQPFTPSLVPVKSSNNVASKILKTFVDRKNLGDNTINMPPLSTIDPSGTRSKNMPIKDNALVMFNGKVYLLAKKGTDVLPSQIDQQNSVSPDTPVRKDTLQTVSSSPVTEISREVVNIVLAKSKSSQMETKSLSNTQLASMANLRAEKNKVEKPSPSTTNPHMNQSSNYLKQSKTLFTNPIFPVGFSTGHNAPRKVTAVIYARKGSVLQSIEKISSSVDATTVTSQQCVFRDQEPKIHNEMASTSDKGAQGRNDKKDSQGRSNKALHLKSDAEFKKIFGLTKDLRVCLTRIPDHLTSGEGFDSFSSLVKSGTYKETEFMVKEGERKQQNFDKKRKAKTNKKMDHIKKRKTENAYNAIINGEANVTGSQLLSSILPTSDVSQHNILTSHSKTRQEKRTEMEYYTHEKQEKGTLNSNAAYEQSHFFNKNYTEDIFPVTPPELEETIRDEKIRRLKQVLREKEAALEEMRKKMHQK
# UniProt Q9NUP9: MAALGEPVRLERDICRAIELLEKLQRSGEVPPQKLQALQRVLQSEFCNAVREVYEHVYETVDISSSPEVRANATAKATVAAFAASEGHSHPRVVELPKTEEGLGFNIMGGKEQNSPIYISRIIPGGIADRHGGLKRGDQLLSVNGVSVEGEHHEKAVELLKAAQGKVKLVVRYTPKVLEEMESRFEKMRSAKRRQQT
# This is one part of the list.
# What was measured:
# Experiment in all cases: log2 fold change, soluble protein after heating vs DMSO (PISA); higher = thermal stabilisation; K562 cells, 10 uM, 30 min; active = over 0.2 and 3.5 SD of the protein, either way, in both replicates (recomputed)
# [1] = compound: CS(=O)(=O)c1ccc(-c2cnc(N)c(C(=O)Nc3ccccc3)n2)cc1
# Method in brief: (§1)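 K562 cells at 2×10^6 cells/mL were exposed to 10 μM compound for 30 min, then aliquots were heated for 3 min across 48°C-58°C, pooled, and extracted in PBS containing 0.5% NP-40 at 4°C. The supernatant after 21,000xg for 90 min was taken as soluble protein and measured by TMTpro 16plex LC-MS/MS with channel sums equalised. Thermal stability is reported relative to control samples, with values from duplicates. Fold changes are given on a log2 scale.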
# crizotinib = compound: C[C@@H](Oc1cc(-c2cnn(C3CCNCC3)c2)cnc1N)c1c(Cl)ccc(F)c1Cl [crizotinib]
# Method in brief: as §1
# [2] = compound: C[C@@H]1COCCN1C2=NC(=NC(=C2)C3(CC3)S(=O)(=O)C)C4=C5C=CNC5=CC=C4
# Method in brief: as §1
# [3] = compound: C[C@H](C1=CC=C(C=C1)C(=O)NC2=C3C=CNC3=NC=C2)N
# Method in brief: as §1
# duvelisib = compound: C[C@H](Nc1ncnc2nc[nH]c12)c1cc2cccc(Cl)c2c(=O)n1-c1ccccc1 [duvelisib]
# Method in brief: as §1
# gandotinib = compound: Cc1cc(Nc2cc(CN3CCOCC3)c3nc(C)c(Cc4ccc(Cl)cc4F)n3n2)n[nH]1 [gandotinib]
# Method in brief: as §1
# tozasertib = compound: Cc1cc(Nc2cc(N3CCN(C)CC3)nc(Sc3ccc(NC(=O)C4CC4)cc3)n2)n[nH]1 [tozasertib]
# Method in brief: as §1
# [4] = compound: Cc1cc(SCc2sc(-c3ccc(C(F)(F)F)cc3)nc2C)ccc1OCC(=O)O
# Method in brief: as §1
# doramapimod = compound: Cc1ccc(-n2nc(C(C)(C)C)cc2NC(=O)Nc2ccc(OCCN3CCOCC3)c3ccccc23)cc1 [doramapimod]
# Method in brief: as §1
# ispinesib = compound: Cc1ccc(C(=O)N(CCCN)[C@@H](c2nc3cc(Cl)ccc3c(=O)n2Cc2ccccc2)C(C)C)cc1 [ispinesib]
# Method in brief: as §1
Target,log2 fold change [1],log2 fold change (crizotinib),log2 fold change [2],log2 fold change [3],log2 fold change (duvelisib),log2 fold change (gandotinib),log2 fold change (tozasertib),log2 fold change [4],log2 fold change (doramapimod),log2 fold change (ispinesib)
L3HYPDH (UniProt Q96EM0),inactive: 0.048,inactive: -0.089,inactive: 0.092,inactive: -0.004,inactive: 0.018,inactive: -0.041,inactive: -0.037,inactive: 0.004,inactive: 0.051,inactive: 0.044
KYNU (UniProt Q16719),inactive: -0.005,inactive: 0.09,inactive: 0.003,inactive: 0.029,inactive: 0.046,inactive: 0.022,inactive: -0.096,inactive: -0.106,inactive: 0.013,inactive: -0.011
LARS (UniProt Q9P2J5),inactive: 0.016,inactive: -0.078,inactive: -0.201,inactive: 0.327,inactive: -0.116,inactive: 0.082,inactive: 0.055,inactive: 0.106,inactive: 0.2,inactive: -0.236
LRPAP1 (UniProt P30533),inactive: 0.005,inactive: 0.061,inactive: -0.014,inactive: 0.016,inactive: 0.013,inactive: -0.009,inactive: 0.012,inactive: -0.01,inactive: -0.002,inactive: 0.257
LMTK2 (UniProt Q8IWU2),inactive: 0.056,inactive: -0.076,inactive: -0.103,inactive: 0.292,inactive: -0.043,inactive: 0.249,inactive: 0.028,inactive: -0.099,inactive: 0.083,inactive: -0.043
LAPTM4A (UniProt Q15012),inactive: -0.048,,,,,,,,,
KYAT1 (UniProt Q16773),inactive: 0.014,inactive: -0.018,inactive: -0.013,inactive: 0.005,inactive: 0.047,inactive: -0.063,inactive: -0.035,inactive: -0.061,inactive: -0.008,inactive: -0.002
KTI12 (UniProt Q96EK9),inactive: 0.089,inactive: -0.16,inactive: 0.035,inactive: -0.042,inactive: -0.031,inactive: -0.079,inactive: -0.126,inactive: 0.033,inactive: 0.001,inactive: -0.084
LAMTOR1 (UniProt Q6IAA8),inactive: -0.099,inactive: -0.165,inactive: -0.167,inactive: -0.073,inactive: -0.005,inactive: 0.091,inactive: 0.012,inactive: -0.004,inactive: 0.039,inactive: -0.08
LRBA (UniProt P50851),inactive: 0.018,inactive: -0.054,inactive: 0.037,inactive: -0.005,,inactive: -0.094,,inactive: 0.011,inactive: 0.012,inactive: -0.078
LIMK2 isoform 3 (UniProt P53671),inactive: 0.045,inactive: 0.111,inactive: 0.052,inactive: -0.009,inactive: 0.159,inactive: -0.019,inactive: -0.112,inactive: -0.072,inactive: -0.212,inactive: 0
LRP10 (UniProt Q7Z4F1),inactive: -0.256,inactive: -0.14,inactive: -0.209,inactive: -0.016,inactive: -0.129,,,inactive: 0.271,inactive: -0.019,inactive: -0.623
LACTB2 (UniProt Q53H82),inactive: -0.005,inactive: 0.049,inactive: 0.01,inactive: -0.081,inactive: -0.017,inactive: -0.013,inactive: -0.006,inactive: -0.05,inactive: -0.035,inactive: 0.098
LMNA (UniProt P02545),inactive: -0.054,inactive: 0.064,inactive: 0.102,active: -0.231,,inactive: -0.098,,inactive: -0.035,inactive: 0.018,active: 0.214
LIMA1 isoform 4 (UniProt Q9UHB6),inactive: -0.076,inactive: 0.001,inactive: -0.04,inactive: -0.057,,inactive: 0.019,,inactive: -0.036,inactive: -0.023,inactive: 0.185
LIMS1 isoform 3 (UniProt P48059),inactive: -0.022,inactive: 0.069,inactive: 0.045,inactive: -0.032,inactive: 0.042,inactive: -0.007,inactive: 0.019,inactive: -0.012,inactive: -0.027,inactive: 0.069

# Nothing new here: an excerpt of the list.
Target,log2 fold change [1],log2 fold change (crizotinib),log2 fold change [2],log2 fold change [3],log2 fold change (duvelisib),log2 fold change (gandotinib),log2 fold change (tozasertib),log2 fold change [4],log2 fold change (doramapimod),log2 fold change (ispinesib)
LRBA (UniProt P50851),inactive: 0.018,inactive: -0.054,inactive: 0.037,inactive: -0.005,,inactive: -0.094,,inactive: 0.011,inactive: 0.012,inactive: -0.078
LIMK2 isoform 3 (UniProt P53671),inactive: 0.045,inactive: 0.111,inactive: 0.052,inactive: -0.009,inactive: 0.159,inactive: -0.019,inactive: -0.112,inactive: -0.072,inactive: -0.212,inactive: 0

# Going on with the list:

Target,log2 fold change [1],log2 fold change (crizotinib),log2 fold change [2],log2 fold change [3],log2 fold change (duvelisib),log2 fold change (gandotinib),log2 fold change (tozasertib),log2 fold change [4],log2 fold change (doramapimod),log2 fold change (ispinesib)
LPIN2 (UniProt Q92539),inactive: 0,inactive: -0.195,inactive: -0.021,inactive: 0.111,inactive: 0.013,inactive: 0.014,inactive: -0.098,inactive: 0.101,inactive: 0.062,inactive: 0.003
LARP4B (UniProt Q92615),inactive: -0.066,inactive: -0.1,inactive: -0.121,inactive: 0.104,,inactive: -0.029,,inactive: 0.065,inactive: 0.048,inactive: -0.132
LRIF1 (UniProt Q5T3J3),inactive: 0.013,inactive: 0.011,inactive: -0.081,inactive: -0.18,inactive: 0.096,inactive: 0.045,inactive: 0.025,inactive: 0.02,inactive: 0.001,inactive: -0.036
LMO2 isoform 3 (UniProt P25791),inactive: -0.009,inactive: 0.015,inactive: -0.015,inactive: 0.028,inactive: 0.076,inactive: -0.161,inactive: 0.023,inactive: -0.011,inactive: -0.009,inactive: -0.01
KTN1 (UniProt Q86UP2),inactive: -0.016,inactive: -0.078,inactive: -0.028,inactive: 0.122,,inactive: -0.047,,inactive: 0.097,inactive: 0.094,inactive: -0.207
LRIG2 (UniProt O94898),inactive: -0.009,inactive: 0,inactive: -0.012,inactive: 0.023,inactive: 0.033,inactive: 0.01,inactive: 0.025,inactive: 0.11,inactive: -0.017,inactive: 0.052
LIG1 (UniProt P18858),inactive: 0.082,inactive: -0.05,inactive: 0.221,inactive: -0.039,inactive: 0.1,inactive: -0.147,inactive: 0.06,inactive: 0.142,inactive: -0.076,inactive: 0.004
LPIN1 isoform 7 (UniProt Q14693),inactive: 0,inactive: -0.184,inactive: -0.034,inactive: 0.031,,inactive: -0.079,,inactive: -0.043,inactive: 0.067,inactive: -0.037
LRP8 (UniProt E9PP15),inactive: 0.09,inactive: -0.241,inactive: 0.085,inactive: -0.072,inactive: 0.022,,inactive: 0.192,inactive: -0.043,inactive: 0.047,inactive: 0.044
LONP1 (UniProt P36776),inactive: 0.027,inactive: 0.075,inactive: 0.035,inactive: -0.056,inactive: 0.021,inactive: -0.006,inactive: -0.016,inactive: -0.022,inactive: -0.028,inactive: 0.047
LIN7A (UniProt O14910),inactive: 0.023,inactive: -0.018,inactive: -0.06,inactive: -0.021,inactive: 0.096,,inactive: 0.007,inactive: 0.061,inactive: -0.035,inactive: -0.023
L1RE1 (UniProt Q9UN81),inactive: -0.211,inactive: 0.157,inactive: -0.283,inactive: 0.144,inactive: -0.011,,inactive: 0.209,inactive: 0.012,inactive: 0.06,inactive: -0.023
LANCL1 (UniProt O43813),inactive: -0.003,inactive: 0.011,inactive: -0.001,inactive: -0.095,inactive: 0.034,inactive: 0.008,inactive: -0.027,inactive: 0.007,inactive: -0.043,inactive: 0.021
LIN7C (UniProt Q9NUP9),inactive: -0.029,inactive: -0.014,inactive: -0.017,inactive: -0.144,inactive: 0.058,inactive: -0.013,inactive: -0.001,inactive: 0.014,inactive: 0.042,inactive: -0.02
LRRC4B (UniProt Q9NT99),inactive: 0.024,inactive: 0.065,inactive: -0.006,inactive: -0.085,inactive: -0.004,inactive: 0.006,inactive: -0.057,inactive: -0.119,inactive: -0.183,inactive: 0.179
LRRC20 (UniProt Q8TCA0),inactive: 0.042,inactive: 0.116,inactive: 0.217,inactive: -0.067,inactive: 0.04,inactive: -0.023,inactive: -0.047,inactive: -0.003,inactive: 0.079,inactive: 0.195

# Looked up above:
# log2 fold change (doramapimod) with LRBA (UniProt P50851) is entered as inactive: 0.012
# log2 fold change [2] with L3HYPDH (UniProt Q96EM0) is entered as inactive: 0.092
